Reference: publication PMC10800070
Results are given in words; binding and its absence hold for the method and conditions named. Binding seen in cells or lysates may run through a third protein. Some results given as binding are weak or reduced against the parent protein; the word gives no strength.

Amino acid sequences for entries named in this document (tags omitted).
UniProt P11798: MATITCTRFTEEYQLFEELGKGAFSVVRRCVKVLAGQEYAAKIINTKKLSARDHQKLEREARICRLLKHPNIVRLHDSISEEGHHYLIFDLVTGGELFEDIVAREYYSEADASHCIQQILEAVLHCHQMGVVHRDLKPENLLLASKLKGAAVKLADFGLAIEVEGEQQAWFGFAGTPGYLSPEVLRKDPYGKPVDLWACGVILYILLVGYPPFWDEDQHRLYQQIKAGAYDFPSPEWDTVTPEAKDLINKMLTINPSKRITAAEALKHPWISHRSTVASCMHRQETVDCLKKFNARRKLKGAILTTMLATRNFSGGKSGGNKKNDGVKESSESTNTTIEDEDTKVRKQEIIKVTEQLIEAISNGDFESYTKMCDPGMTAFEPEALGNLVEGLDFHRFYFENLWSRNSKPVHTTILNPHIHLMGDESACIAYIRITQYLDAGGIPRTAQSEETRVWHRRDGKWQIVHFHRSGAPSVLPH

Target: T1, Rasal1 (mouse (endogenous in mouse hippocampus)) (UniProt Q9Z268)
T1 sequence: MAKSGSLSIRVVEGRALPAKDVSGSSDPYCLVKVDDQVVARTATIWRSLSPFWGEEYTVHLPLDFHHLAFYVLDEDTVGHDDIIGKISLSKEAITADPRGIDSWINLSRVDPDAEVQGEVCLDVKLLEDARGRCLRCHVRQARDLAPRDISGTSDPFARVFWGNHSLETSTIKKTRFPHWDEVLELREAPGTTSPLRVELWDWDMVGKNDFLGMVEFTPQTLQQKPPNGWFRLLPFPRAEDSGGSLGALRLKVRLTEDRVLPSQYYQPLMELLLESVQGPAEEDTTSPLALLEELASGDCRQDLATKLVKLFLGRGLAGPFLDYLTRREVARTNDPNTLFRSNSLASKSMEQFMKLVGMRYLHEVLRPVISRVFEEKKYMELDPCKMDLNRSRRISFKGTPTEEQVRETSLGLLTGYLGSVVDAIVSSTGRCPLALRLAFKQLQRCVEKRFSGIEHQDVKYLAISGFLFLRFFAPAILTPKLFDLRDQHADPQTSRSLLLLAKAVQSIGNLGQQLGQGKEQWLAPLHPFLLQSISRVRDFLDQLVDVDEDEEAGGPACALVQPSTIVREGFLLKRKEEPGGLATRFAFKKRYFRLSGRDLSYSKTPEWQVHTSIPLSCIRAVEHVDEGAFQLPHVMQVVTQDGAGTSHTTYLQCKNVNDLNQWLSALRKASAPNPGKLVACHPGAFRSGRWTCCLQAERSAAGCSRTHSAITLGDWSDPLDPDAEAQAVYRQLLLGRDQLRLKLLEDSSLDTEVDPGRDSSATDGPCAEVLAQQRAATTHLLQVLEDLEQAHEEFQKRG
Assay: co-IP; hippocampal protein (300 μg) incubated with Protein A/G Plus-Agarose beads pretreated with Rasal1 antibody (GenScript) at 4 °C; washed five times with RIPA buffer; Western blot

- binding: binds
Substance: CaMKII-α (from UniProt P11798 1-478) (enzyme)
